# Hit rate of the full screen: of about 330,000 compounds, about 610 (0.18%) were called active. The inconclusive results got no clear call from the source; some entries with a clear call stand among them for comparison. The call rests on the fitted dose curve. A potency beside an inconclusive call is a rough fit, not a confirmed value.
# Test: qHTS of Yeast-based Assay for SARS-CoV PLP; further: nearly all actives have a fitted effect of over 55% in size
# Conditions: S. cerevisiae expressing SARS-CoV PLpro; Potency: growth rescue; series mostly up to 32.9 µM
# Potency means the concentration at half of the fitted maximal effect.
row,SMILES,Potency
1,O=C(NCc1cccc(C(F)(F)F)c1)c1ccc(=O)[nH]c1,inactive
2,CCN(C(=O)CN1C(=O)/C(=C/c2ccc(F)cc2)SC1=S)C1CCS(=O)(=O)C1 (stereo unspecified),"inconclusive: 20 µM [activator, single point]"
3,CCCc1n[nH]c2c1C(=O)CC(C)(C)C2,"inconclusive: 3.16 µM [activator, single point]"
4,Cc1cc(NS(=O)(=O)c2ccc(NC(=O)c3oc4ccccc4c3C)cc2)no1,"inconclusive: 20 µM [activator, single point]"
5,CC1CCc2cc(F)ccc2N1S(=O)(=O)c1ccc(F)cc1 (stereo unspecified),active: 8.91 µM
6,O=C(N/N=C/c1cc([N+](=O)[O-])ccc1O)c1cccc2ccccc12,"inconclusive: 2.24 µM [activator, full curve]"
7,CCCCN(C(=O)C1CC(=O)N(c2ccc(OC)cc2OC)C1)c1c(N)n(CC(C)C)c(=O)[nH]c1=O (stereo unspecified),"inconclusive: 12.6 µM [activator, single point]"
8,COc1ccc(S(=O)(=O)Nc2ccc3c(c2)C(=O)N([C@H](C)CO)C[C@H](C)[C@@H](CN(C)S(=O)(=O)c2cccs2)O3)cc1,inactive
9,CN(CC(=O)Nc1cccc2c1CCCC2)S(=O)(=O)c1ccc(Cl)cc1,"inconclusive: 2.82 µM [activator, partial curve]"
10,CCOc1ccc(CCNC(=O)C2CC(=O)N(c3ccc4c(c3)OCCO4)C2)cc1OCC (stereo unspecified),inactive
11,O=c1[nH]oc(O)c1-c1ncc(C(F)(F)F)cc1Cl,"inconclusive: 20 µM [activator, single point]"
12,Cc1noc(C)c1C(=O)Nc1nc(-c2ccc(F)cc2)cs1,"inconclusive: 22.4 µM [activator, single point]"
13,CC(=O)Nc1cccc(N2C(=O)CC(Cc3ccccc3)C2=O)c1 (stereo unspecified),"inconclusive: 3.98 µM [activator, single point]"
14,CCCC(=O)Nc1cccc(-c2nc3ccccc3c(=O)o2)c1,inactive
15,O=C(COC(=O)CSc1cccc2cccc(Cl)c12)Nc1ncc(C(F)(F)F)cc1Cl,inactive
16,CCOc1ccc(C(C)NC(=S)NCc2ccc(F)cc2)cc1 (stereo unspecified),"inconclusive: 2 µM [activator, full curve, poor fit]"
17,COc1ccccc1CNC(=O)C(=O)NCC1OCCN1S(=O)(=O)c1ccccc1 (stereo unspecified),"inconclusive: 20 µM [activator, single point]"
18,O=C(NCCC1=CCCCC1)c1cc2ccccc2oc1=O,inactive
19,Cc1nc2ccc(Cl)cc2c(-c2ccccc2F)c1CC(=O)O,"inconclusive: 6.31 µM [activator, partial curve]"
20,CCN(CC)c1ccc(C2C3CCCCC3(O)CCN2C(=O)c2cccs2)cc1 (stereo unspecified),inactive
21,CC(=O)N1CCN(c2ccc(NC(=O)c3ccco3)cc2Cl)CC1,"inconclusive: 4.47 µM [activator, single point]"
22,CCOC1CCCCC1NS(=O)(=O)c1ccc(Cl)cc1 (stereo unspecified),"inconclusive: 17.8 µM [activator, single point]"
23,Cc1ccc(NCN2C(=O)C3C4C=CC(C4)C3C2=O)cc1 (stereo unspecified),"inconclusive: 3.98 µM [activator, single point]"
24,COc1ccc(-c2nnc(SCC#CCO)o2)cc1OC,inactive

# A different layout for two compounds above:
row | SMILES | Potency
6 | O=C(N/N=C/c1cc([N+](=O)[O-])ccc1O)c1cccc2ccccc12 | inconclusive: 2.24 µM [activator, full curve]
7 | CCCCN(C(=O)C1CC(=O)N(c2ccc(OC)cc2OC)C1)c1c(N)n(CC(C)C)c(=O)[nH]c1=O (stereo unspecified) | inconclusive: 12.6 µM [activator, single point]

# More results follow:

row,SMILES,Potency
1,CCCS(=O)(=O)N1CCCC(C(=O)NCc2ccco2)C1 (stereo unspecified),"inconclusive: 20 µM [activator, single point]"
2,CC1CCCCC1NC(=O)C(Cc1ccccc1)NS(=O)(=O)c1cccs1 (stereo unspecified),"inconclusive: 17.8 µM [activator, single point]"
3,CCS(=O)(=O)N1CCN(C2CCC(c3ccccc3)CC2)CC1 (stereo unspecified),"inconclusive: 3.55 µM [activator, single point]"
4,CCN(CC)c1ccc2cc(C(=O)Nc3cccnc3N3CCOCC3)c(=O)oc2c1,"inconclusive: 3.98 µM [activator, single point]"
5,CCN1C(=NCc2ccccc2)N[C@@H](c2ccccc2)[C@H](C(=O)OC)[C@H]1C,"inconclusive: 11.2 µM [activator, single point]"
6,COCCCNC(=O)C1CC(=O)N(CCc2ccccc2)C1 (stereo unspecified),"inconclusive: 3.16 µM [activator, single point]"
7,O=c1[nH]c2ccc(S(=O)(=O)N3CCCCC3)cc2s1,inactive
8,CC(C)C/C(=N/O)c1c[nH]c2ccccc12,"inconclusive: 20 µM [activator, single point]"
9,O=C(CNC(=O)c1ccco1)OC(C(=O)c1ccccc1)c1ccccc1 (stereo unspecified),"inconclusive: 3.16 µM [activator, partial curve]"
10,C=CCn1c(SCC(=O)c2[nH]c(C)c(C(=O)OCC)c2C)nc2scc(-c3ccccc3)c2c1=O,"inconclusive: 4.47 µM [activator, partial curve]"
11,COCCN(C(=O)COC(=O)c1ccc(C)s1)c1c(N)n(Cc2ccccc2)c(=O)[nH]c1=O,"inconclusive: 11.2 µM [activator, single point]"
12,COc1ccc(C(=O)NCc2ccc3c(c2)cc(C)n3C)cc1,inactive
13,CC(=O)c1c(C(C)=O)c(C)n(NC(=O)c2ccccc2Cl)c1C,"inconclusive: 20 µM [activator, single point]"
14,O=C(N/N=C/c1ccc(OCC(=O)N2CCCC2)cc1)C(=O)NC1CC1,"inconclusive: 0.398 µM [activator, full curve, poor fit]"
15,Cc1nc(NC(=O)CCN2C(=O)C3CC=CCC3C2=O)sc1C (stereo unspecified),"inconclusive: 3.55 µM [activator, single point]"
16,Cc1[nH]c(=S)sc1Cc1ccc(F)cc1,active: 10 µM
17,CCOC(=O)C1=C(C)Nc2nnnn2C1c1ccc(OC)c(Br)c1 (stereo unspecified),inactive
18,CC(=O)c1ccc(NC(=O)CSc2nnc(NC(=O)c3ccco3)s2)cc1,"inconclusive: 11.2 µM [activator, single point]"
19,Clc1ccccc1-c1nnc2sc(CCc3ccccc3)nn12,"inconclusive: 3.98 µM [activator, single point]"
20,O=C1C(Cc2ccccc2)Nc2ncnc(N3CCc4ccccc4C3)c2N1Cc1ccc(Br)cc1 (stereo unspecified),inactive
21,O=C1CCc2cc(S(=O)(=O)Nc3ccccc3F)ccc2N1,inactive
22,O=C(Nc1nc2c(s1)CCCC2)c1ccc(Br)o1,inactive
23,CCC/C(=N\NC(=O)c1ccco1)c1ccc(Cl)s1,"inconclusive: 17.8 µM [activator, single point]"
24,CC(C)(C)NC(=O)c1nn(Cc2ccccc2)c(=O)c2ccccc12,"inconclusive: 3.55 µM [activator, single point]"

row,SMILES,Potency
1,CC(C)C(NC(=O)Cc1ccccc1)C(=O)N1CCN(c2cccc(Cl)c2)CC1 (stereo unspecified),inactive
2,Cc1noc(C)c1S(=O)(=O)N1CCC(C(N)=O)CC1,"inconclusive: 20 µM [activator, single point]"
3,CCOC(=O)c1c(S(=O)(=O)N2CCC(C)CC2)c(C)n(C)c1C,"inconclusive: 22.4 µM [activator, single point]"
4,CS(=O)(=O)c1ccc(Cl)c(NC(=O)COC(=O)c2cccc(S(=O)(=O)N3CCCCC3)c2)c1,"inconclusive: 11.2 µM [activator, partial curve]"
5,CCOC(=O)C1CCN(C(=O)COC(=O)/C=C/c2cccc(OC)c2OC)CC1,inactive
6,COc1ccc(NC(=O)NNC(=O)COc2ccc3ccccc3c2)cc1OC,"inconclusive: 3.16 µM [activator, single point]"
7,CSc1ncccc1C(=O)N1CCCC(N2CCN(c3ccccc3F)CC2)C1 (stereo unspecified),"inconclusive: 22.4 µM [activator, single point]"
8,CCOC(=O)C1=C(C)OC(N)=C(C#N)C1c1cc(SCC)oc1C (stereo unspecified),inactive
9,O=C(CN1C(=O)c2ccccc2C1=O)NC1CCCCC1,"inconclusive: 14.1 µM [activator, single point]"
10,CC(=O)Nc1ccc(NC(=O)CCCc2ccccc2)cc1,inactive
11,O=S(=O)(c1ccc(OCC(O)CN2CCN(c3ccccc3)CC2)cc1)N1CCOCC1 (stereo unspecified),"inconclusive: 17.8 µM [activator, single point]"
12,Fc1cccc(NC(=S)NCCc2ccccc2)c1,"inconclusive: 20 µM [activator, single point]"
13,NC(=O)C1CCN(C(=O)NC(=O)c2ccccc2)CC1,"inconclusive: 17.8 µM [activator, single point]"
14,Cc1[nH]c(=S)n(CC2CCCO2)c1C (stereo unspecified),"inconclusive: 4.47 µM [activator, single point]"
15,CCCNC(=O)c1ccc2c(=O)c(O)c(-c3ccsc3)[nH]c2c1,"inconclusive: 3.16 µM [activator, partial curve]"
16,CCCCNC(=S)N/N=C/c1cc(C)ccc1C,"inconclusive: 12.6 µM [activator, partial curve]"
17,CCOC(=O)c1ccc(NC(=O)Cn2cccc2)cc1,"inconclusive: 3.55 µM [activator, single point]"
18,CC(=O)c1c[nH]c(C(=O)NCC2CCCO2)c1 (stereo unspecified),"inconclusive: 3.98 µM [activator, single point]"
19,Cc1ccccc1/C(N)=N/O,inactive
20,CCOc1ccc(-c2cc(C(=O)N3CCN(c4ccccn4)CC3)c3ccccc3n2)cc1,inactive
21,Cc1cc(C)c2oc(-c3ccc(C)c(NC(=S)NC(=O)/C=C/c4ccco4)c3)nc2c1,"inconclusive: 4.47 µM [activator, single point]"
22,COc1ccc(SCc2noc(C(=O)NC(C)C)c2C(=O)O)cc1,"inconclusive: 3.98 µM [activator, single point]"
23,O=C(c1ccc2[nH]c(=O)c(=O)[nH]c2c1)N1CCc2ccccc21,"inconclusive: 3.16 µM [activator, full curve, poor fit]"

# Taken from the entries so far, two compounds:
row,SMILES,Potency
8,CCOC(=O)C1=C(C)OC(N)=C(C#N)C1c1cc(SCC)oc1C (stereo unspecified),inactive
9,O=C(CN1C(=O)c2ccccc2C1=O)NC1CCCCC1,"inconclusive: 14.1 µM [activator, single point]"

# Source: PubChem BioAssay AID485353 (National Center for Advancing Translational Sciences (NCATS), 2010)
